Source: US9844563B2, “Compositions, kits, and methods to induce acquired cytoresistance using stress protein inducers” (FRED HUTCHINSON CANCER RESEARCH CENTER, priority 2014, dated 2017)

Tested on: Haptoglobin
Test: Dose-response after IP N-Mgb−SnPP: renal cortical and plasma haptoglobin
Format: in vivo, mice
Details: IP N-Mgb doses with fixed SnPP 1 umol

B1: N-Mgb: horse skeletal muscle myoglobin converted into a nitrited form by equimolar Na nitrite (protein, UniProt P68082 2-154, looked up)
Myoglobin: GLSDGEWQQVLNVWGKVEADIAGHGQEVLIRLFTGHPETLEKFDKFKHLKTEAEMKASEDLKKHGTVVLTALGGILKKKGHHEAELKPLAQSHATKHKIPIKYLEFISDAIIHVLHSKHPGDFGADAQGAMTKALELFRNDIAAKYKELGFQG
modifications: nitrited with sodium nitrite
  correlation (r) dose administered vs plasma haptoglobin levels: 0.75
  correlation coefficient plasma vs renal concentrations, haptoglobin: 0.82
